In patent publication US20130266605A1, “PEPTIDE INHIBITORS OF CD40L SIGNALING AND USES THEREFOR” (PHYLOGICA LIMITED, priority 2010, published 2013):
Not every detail of the peptide structures is certain; ends, links or a residue may be inferred. Residues, ends and D or L forms follow the SMILES beside them.

How the values were obtained:
CD40L-CD40 interaction = target: T1, CD40L-CD40 interaction (Homo sapiens, UniProt P29965); test: Chemiluminescent proximity assay (Alphascreen); assay type: binding; conditions: in words; Alphascreen proximity assay
T1 sequence (P29965 113-261 limits assumed): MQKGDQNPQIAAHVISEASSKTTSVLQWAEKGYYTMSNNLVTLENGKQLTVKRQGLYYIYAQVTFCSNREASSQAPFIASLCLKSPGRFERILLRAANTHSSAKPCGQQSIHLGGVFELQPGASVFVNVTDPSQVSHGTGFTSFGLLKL
Protocol: In one example, the Alphascreen assay (PerkinElmer) was employed according to the manufacturer's instructions.
Homodimers and heterodimers were also assayed by chemiluminescent proximity assay for their ability to inhibit CD40L-CD40 interaction.

TNFα-induced cytoxicity = test: TNFα-induced cytotoxicity control assay; assay type: cell-based; conditions: in words; specificity control
Protocol: As a control in these assays, LPS-induced expression of CD86 mediated by the Toll-like receptors TLR 2/4, and TNFα-induced cytoxicity, were also assayed to exclude effects mediated by ligands other than CD40L.

Row | Compound | inhibition of the interaction between CD40L and CD40 (CD40L-CD40 interaction) | significant inhibition of TNFα-induced cell death / cytoxicity (TNFα-induced cytoxicity)
1 | CC(C)C[C@H](NC(=O)[C@H](Cc1ccc(O)cc1)NC(=O)[C@H](CC(=O)O)NC(=O)[C@H](CCCNC(=N)N)NC(=O)[C@H](CCCNC(=N)N)NC(=O)[C@H](Cc1ccccc1)NC(=O)[C@H](CO)NC(=O)[C@H](CO)NC(=O)[C@H](Cc1ccc(O)cc1)NC(=O)[C@H](Cc1ccccc1)NC(=O)[C@H](CCCNC(=N)N)NC(=O)[C@H](Cc1ccccc1)NC(=O)[C@H](CC(C)C)NC(=O)[C@H](Cc1ccccc1)NC(=O)[C@H](Cc1ccccc1)NC(=O)[C@H](CC(C)C)NC(=O)[C@H](CC(N)=O)NC(=O)[C@H](Cc1ccc(O)cc1)NC(=O)[C@H](CCCNC(=N)N)NC(=O)[C@@H]1CCCN1C(=O)[C@@H]1CCCN1)C(=O)N[C@@H](Cc1ccc(O)cc1)C(=O)N[C@@H](Cc1ccccc1)C(=O)O [CD40L M1_9s] (H-PPRYNLFFLFRFYSSFRRDYLYF-OH) | inhibition | lack of inhibition and none
2 | CC[C@H](C)[C@H](NC(=O)[C@H](CO)NC(=O)[C@H](Cc1ccccc1)NC(=O)[C@@H]1CCCN1C(=O)[C@@H]1CCCN1C(=O)[C@H](CO)NC(=O)[C@H](Cc1ccccc1)NC(=O)[C@H](Cc1ccccc1)NC(=O)[C@H](Cc1ccccc1)NC(=O)[C@H](CC(C)C)NC(=O)[C@H](CC(C)C)NC(=O)[C@@H](N)CC(C)C)C(=O)N[C@@H](Cc1ccccc1)C(=O)N[C@@H](CO)C(=O)N[C@@H](Cc1ccccc1)C(=O)N[C@@H](CO)C(=O)N[C@@H](CC(C)C)C(=O)N[C@H](C(=O)N[C@H](C(=O)N[C@@H](CC(C)C)C(=O)N[C@@H](CO)C(=O)O)[C@@H](C)O)[C@@H](C)O [Peptide M7_189S] (H-LLLFFFSPPFSIFSFSLTTLS-OH) | inhibition | 
